Data from PMC12675664.
These are yes or no findings as the source states them, for the method shown. In cells and extracts the contact can be indirect. Some binding calls cover weakened binding; strength is not graded here. For some of these results: Where a sequence is shown, tags or fusion partners need not be part of it. Values belong to the binder of their own block, whether it stands above or below them.

Tests used:
[1] = target: T1, CDC6 of the IP experiment with Tmod1 (human) (UniProt Q99741); experiment: co-IP; IP experiments of CDC6 and Tmod1 (Supplementary Fig. 4h); cells and constructs not told
T1 sequence: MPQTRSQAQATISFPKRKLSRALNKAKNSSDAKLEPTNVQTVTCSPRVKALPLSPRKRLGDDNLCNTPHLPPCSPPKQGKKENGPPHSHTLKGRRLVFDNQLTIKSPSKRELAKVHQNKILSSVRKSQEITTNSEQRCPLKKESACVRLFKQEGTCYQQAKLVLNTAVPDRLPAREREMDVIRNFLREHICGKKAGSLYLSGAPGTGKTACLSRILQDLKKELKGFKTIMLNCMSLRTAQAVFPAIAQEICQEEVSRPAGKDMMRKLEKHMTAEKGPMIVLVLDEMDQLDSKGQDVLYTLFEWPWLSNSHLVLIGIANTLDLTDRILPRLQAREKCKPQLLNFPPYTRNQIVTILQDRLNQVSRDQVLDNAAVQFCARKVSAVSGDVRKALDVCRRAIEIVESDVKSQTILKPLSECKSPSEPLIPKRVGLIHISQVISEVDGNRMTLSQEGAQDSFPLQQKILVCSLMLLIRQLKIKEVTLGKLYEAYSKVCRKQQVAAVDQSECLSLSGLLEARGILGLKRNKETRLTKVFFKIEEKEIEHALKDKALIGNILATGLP

[2] = target: T2, cell division cycle 6 (CDC6) tagged with HA (human) (UniProt Q99741); experiment: co-IP; HEK293T transfected with CDC6-HA and TMOD3-Flag for 48 h; western-IP lysis buffer; anti-HA and anti-Flag magnetic beads overnight; western blotting
T2 sequence: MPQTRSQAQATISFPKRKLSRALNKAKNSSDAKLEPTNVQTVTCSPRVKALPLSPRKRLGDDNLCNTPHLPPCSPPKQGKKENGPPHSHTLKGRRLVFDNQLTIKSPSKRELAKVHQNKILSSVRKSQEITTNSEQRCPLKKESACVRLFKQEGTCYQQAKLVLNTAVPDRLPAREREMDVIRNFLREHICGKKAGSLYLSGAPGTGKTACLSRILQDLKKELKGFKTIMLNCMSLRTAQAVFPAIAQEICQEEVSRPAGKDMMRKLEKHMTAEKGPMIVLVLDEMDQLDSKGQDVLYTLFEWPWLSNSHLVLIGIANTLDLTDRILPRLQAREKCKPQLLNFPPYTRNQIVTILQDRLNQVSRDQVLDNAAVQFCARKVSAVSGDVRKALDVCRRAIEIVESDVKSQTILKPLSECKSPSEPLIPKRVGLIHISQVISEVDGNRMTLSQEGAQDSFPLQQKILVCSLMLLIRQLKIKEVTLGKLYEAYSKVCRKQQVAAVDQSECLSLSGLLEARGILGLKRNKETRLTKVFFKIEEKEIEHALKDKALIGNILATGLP

[3] = target: T3, CDC6 in pBiFC-VN (Venus fragment fusion) (human) (UniProt Q99741); experiment: split reporter; BiFC with Venus fragments: CDC6 in pBiFC-VN and Tmod3 in pBiFC-VC co-transfected in HEK293T; live-cell images after 48 h
T3 sequence: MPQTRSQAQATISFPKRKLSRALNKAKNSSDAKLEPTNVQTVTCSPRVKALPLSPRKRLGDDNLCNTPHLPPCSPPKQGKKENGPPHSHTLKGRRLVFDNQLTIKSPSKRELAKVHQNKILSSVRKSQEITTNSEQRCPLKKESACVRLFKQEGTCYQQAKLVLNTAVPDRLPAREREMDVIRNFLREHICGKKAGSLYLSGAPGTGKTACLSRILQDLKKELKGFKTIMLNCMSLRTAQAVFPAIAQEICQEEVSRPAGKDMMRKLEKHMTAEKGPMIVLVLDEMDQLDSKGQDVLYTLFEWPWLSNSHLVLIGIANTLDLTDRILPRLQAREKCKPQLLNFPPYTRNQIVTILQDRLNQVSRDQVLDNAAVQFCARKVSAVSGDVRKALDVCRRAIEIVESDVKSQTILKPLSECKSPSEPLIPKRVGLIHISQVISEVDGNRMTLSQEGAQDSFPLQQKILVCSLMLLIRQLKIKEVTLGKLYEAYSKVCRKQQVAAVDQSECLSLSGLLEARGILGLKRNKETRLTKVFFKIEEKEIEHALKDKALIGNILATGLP

[4] = target: T4, CDC6, endogenous in A549 cells (human (endogenous in A549)) (UniProt Q99741); experiment: co-IP; endogenous proteins in A549 lysate; 4 ug anti-CDC6 antibody or control IgG overnight, rProteinA/G beads 4 h; western blotting; also A549 cells treated with paclitaxel for 10 days (interaction increased)
T4 sequence: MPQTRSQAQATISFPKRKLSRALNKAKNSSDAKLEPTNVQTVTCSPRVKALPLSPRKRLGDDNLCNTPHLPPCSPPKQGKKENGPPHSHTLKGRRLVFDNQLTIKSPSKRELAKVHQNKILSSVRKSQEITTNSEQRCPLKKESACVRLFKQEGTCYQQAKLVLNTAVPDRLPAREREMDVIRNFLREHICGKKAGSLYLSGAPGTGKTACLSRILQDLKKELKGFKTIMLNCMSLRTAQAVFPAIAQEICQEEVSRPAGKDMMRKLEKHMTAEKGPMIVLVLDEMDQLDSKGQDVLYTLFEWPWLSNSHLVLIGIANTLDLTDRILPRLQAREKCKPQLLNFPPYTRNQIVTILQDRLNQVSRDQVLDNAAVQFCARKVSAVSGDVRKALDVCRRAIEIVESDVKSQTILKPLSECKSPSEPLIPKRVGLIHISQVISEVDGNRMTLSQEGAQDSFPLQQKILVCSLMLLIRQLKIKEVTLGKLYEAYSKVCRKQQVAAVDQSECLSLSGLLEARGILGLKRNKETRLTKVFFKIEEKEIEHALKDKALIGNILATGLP

binding [1]: binds
B1: Tmod1 (protein, UniProt P28289 1-359)
chain: MSYRRELEKYRDLDEDEILGALTEEELRTLENELDELDPDNALLPAGLRQKDQTTKAPTGPFKREELLDHLEKQAKEFKDREDLVPYTGEKRGKVWVPKQKPLDPVLESVTLEPELEEALANASDAELCDIAAILGMHTLMSNQQYYQALSSSSIMNKEGLNSVIKPTQYKPVPDEEPNSTDVEETLERIKNNDPKLEEVNLNNIRNIPIPTLKAYAEALKENSYVKKFSIVGTRSNDPVAYALAEMLKENKVLKTLNVESNFISGAGILRLVEALPYNTSLVEMKIDNQSQPLGNKVEMEIVSMLEKNATLLKFGYHFTQQGPRLRASNAMMNNNDLVRKRRLADLTGPIIPKCRSGV

binding [2]: binds
B2: Tmod3 tagged with Flag (protein, UniProt Q9NYL9 1-352)
chain: MALPFRKDLEKYKDLDEDELLGNLSETELKQLETVLDDLDPENALLPAGFRQKNQTSKSTTGPFDREHLLSYLEKEALEHKDREDYVPYTGEKKGKIFIPKQKPVQTFTEEKVSLDPELEEALTSASDTELCDLAAILGMHNLITNTKFCNIMGSSNGVDQEHFSNVVKGEKILPVFDEPPNPTNVEESLKRTKENDAHLVEVNLNNIKNIPIPTLKDFAKALETNTHVKCFSLAATRSNDPVATAFAEMLKVNKTLKSLNVESNFITGVGILALIDALRDNETLAELKIDNQRQQLGTAVELEMAKMLEENTNILKFGYQFTQQGPRTRAANAITKNNDLVRKRRVEGDHQ

binding [3]: binds
B3: Tmod3 in pBiFC-VC (Venus fragment fusion) (protein, UniProt Q9NYL9 1-352)
chain: MALPFRKDLEKYKDLDEDELLGNLSETELKQLETVLDDLDPENALLPAGFRQKNQTSKSTTGPFDREHLLSYLEKEALEHKDREDYVPYTGEKKGKIFIPKQKPVQTFTEEKVSLDPELEEALTSASDTELCDLAAILGMHNLITNTKFCNIMGSSNGVDQEHFSNVVKGEKILPVFDEPPNPTNVEESLKRTKENDAHLVEVNLNNIKNIPIPTLKDFAKALETNTHVKCFSLAATRSNDPVATAFAEMLKVNKTLKSLNVESNFITGVGILALIDALRDNETLAELKIDNQRQQLGTAVELEMAKMLEENTNILKFGYQFTQQGPRTRAANAITKNNDLVRKRRVEGDHQ

binding [4]: binds
B4: Tmod3, endogenous in A549 cells (protein, UniProt Q9NYL9 1-352)
chain: MALPFRKDLEKYKDLDEDELLGNLSETELKQLETVLDDLDPENALLPAGFRQKNQTSKSTTGPFDREHLLSYLEKEALEHKDREDYVPYTGEKKGKIFIPKQKPVQTFTEEKVSLDPELEEALTSASDTELCDLAAILGMHNLITNTKFCNIMGSSNGVDQEHFSNVVKGEKILPVFDEPPNPTNVEESLKRTKENDAHLVEVNLNNIKNIPIPTLKDFAKALETNTHVKCFSLAATRSNDPVATAFAEMLKVNKTLKSLNVESNFITGVGILALIDALRDNETLAELKIDNQRQQLGTAVELEMAKMLEENTNILKFGYQFTQQGPRTRAANAITKNNDLVRKRRVEGDHQ
